{"source": "PubChem BioAssay AID1508588 (Peter MacCallum Cancer Centre, 2020)", "aim": "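Which gene losses make BRAF-mutant melanoma cells more responsive to vemurafenib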 (primary screen)", "cell system": "human WM266.4 melanoma cells (BRAF V600 mutant)", "reagents": "siRNA pool against human genes, 40 nM", "duration": "96 h from transfection to read-out", "challenge": "vemurafenib 300 nM (about IC25), added 48 h after transfection, for 48 h; comparison arm got DMSO vehicle only", "measured": "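Cell gain (DAPI nuclei at end minus before drug, mean of two replicates) and medium lactate by absorbance per cell, both as ratio to non-targeting siRNA, also grouped into fold-change classes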", "scale": "cell gain with vemurafenib: higher = more cell gain than with non-targeting siRNA; lactate per cell with vemurafenib: higher = more lactate made per cell", "hit rule": "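a knock-down counts as enhancing when its fold-change classes with vehicle and with vemurafenib, taken together, show a stronger drug effect on cell gain or lactate per cell; exact class pairs not stated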", "calls": "active = enhances vemurafenib effect; inactive = no enhancement seen", "note": "Here is a random part of about 18,000 deposited reagents. Over the whole deposit, 790 (4.4%) got an active call. 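Calls rest on a combination of fold-change classes in drug and vehicle arms, not all shown here.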 Unmarked entries are inactive."}
{"Gene":"AGR3","cell gain with vemurafenib":0.77,"lactate per cell with vemurafenib":0.94}
{"Gene":"OR5D18","cell gain with vemurafenib":0.94,"lactate per cell with vemurafenib":0.54}
{"Gene":"MINPP1","cell gain with vemurafenib":0.6,"lactate per cell with vemurafenib":1.42}
{"Gene":"OR6S1","cell gain with vemurafenib":0.59,"lactate per cell with vemurafenib":1.25}
{"Gene":"CENPE","cell gain with vemurafenib":0.19,"lactate per cell with vemurafenib":1.6}
{"Gene":"STK35","cell gain with vemurafenib":0.27,"lactate per cell with vemurafenib":0.52}
{"Gene":"TMEM145","cell gain with vemurafenib":0.88,"lactate per cell with vemurafenib":0.6}
{"Gene":"OGFOD1","cell gain with vemurafenib":0.73,"lactate per cell with vemurafenib":0.94}
{"Gene":"ST3GAL2","cell gain with vemurafenib":0.67,"lactate per cell with vemurafenib":1.04}
{"Gene":"PC","cell gain with vemurafenib":0.44,"lactate per cell with vemurafenib":0.96}
{"Gene":"ATP8B2","cell gain with vemurafenib":0.99,"lactate per cell with vemurafenib":0.59}
{"Gene":"MYMK","cell gain with vemurafenib":0.73,"lactate per cell with vemurafenib":0.84}
{"Gene":"XPO1","cell gain with vemurafenib":0.05,"lactate per cell with vemurafenib":1.27}
{"Gene":"NPY4R","cell gain with vemurafenib":0.59,"lactate per cell with vemurafenib":0.57}
{"Gene":"ARID4B","cell gain with vemurafenib":0.65,"lactate per cell with vemurafenib":1.17}
{"Gene":"NALF1","cell gain with vemurafenib":1.47,"lactate per cell with vemurafenib":0.62}
{"Gene":"PPP4R1","cell gain with vemurafenib":1.13,"lactate per cell with vemurafenib":1.15}
{"Gene":"SMIM8","cell gain with vemurafenib":0.38,"lactate per cell with vemurafenib":1.21}
{"Gene":"HBG2","cell gain with vemurafenib":0.37,"lactate per cell with vemurafenib":0.92}
{"Gene":"TNK2","cell gain with vemurafenib":0.22,"lactate per cell with vemurafenib":0.8}
{"Gene":"ZDHHC13","cell gain with vemurafenib":0.37,"lactate per cell with vemurafenib":0.82}
{"Gene":"ERCC8","cell gain with vemurafenib":0.58,"lactate per cell with vemurafenib":0.9}
{"Gene":"MYL9","cell gain with vemurafenib":0.63,"lactate per cell with vemurafenib":1.04}
{"Gene":"SAA2","cell gain with vemurafenib":0.82,"lactate per cell with vemurafenib":1.2}
{"Gene":"ARHGEF2","cell gain with vemurafenib":0.28,"lactate per cell with vemurafenib":0.4}
{"Gene":"MRPS15","cell gain with vemurafenib":0.56,"lactate per cell with vemurafenib":1.37}
{"Gene":"ADCY2","cell gain with vemurafenib":0.8,"lactate per cell with vemurafenib":0.6}
{"Gene":"CDH17","cell gain with vemurafenib":0.81,"lactate per cell with vemurafenib":1.12}

Continued; the last 5 above are carried over.
{"Gene":"SAA2","cell gain with vemurafenib":0.82,"lactate per cell with vemurafenib":1.2}
{"Gene":"ARHGEF2","cell gain with vemurafenib":0.28,"lactate per cell with vemurafenib":0.4}
{"Gene":"MRPS15","cell gain with vemurafenib":0.56,"lactate per cell with vemurafenib":1.37}
{"Gene":"ADCY2","cell gain with vemurafenib":0.8,"lactate per cell with vemurafenib":0.6}
{"Gene":"CDH17","cell gain with vemurafenib":0.81,"lactate per cell with vemurafenib":1.12}
{"Gene":"CAPN5","cell gain with vemurafenib":0.66,"lactate per cell with vemurafenib":0.55}
{"Gene":"CBX6","cell gain with vemurafenib":1.01,"lactate per cell with vemurafenib":0.8}
{"Gene":"KRT33B","cell gain with vemurafenib":0.89,"lactate per cell with vemurafenib":0.74}
{"Gene":"PSMD5","cell gain with vemurafenib":0.81,"lactate per cell with vemurafenib":0.79}
{"Gene":"LYSMD3","cell gain with vemurafenib":0.26,"lactate per cell with vemurafenib":2.19}
{"Gene":"ACOT1","cell gain with vemurafenib":1.19,"lactate per cell with vemurafenib":0.8}
{"Gene":"TAAR2","cell gain with vemurafenib":0.58,"lactate per cell with vemurafenib":1.48}
{"Gene":"TBC1D8B","cell gain with vemurafenib":0.45,"lactate per cell with vemurafenib":0.82}
{"Gene":"KIAA0586","cell gain with vemurafenib":0.3,"lactate per cell with vemurafenib":0.51}
{"Gene":"OR8U3","cell gain with vemurafenib":0.27,"lactate per cell with vemurafenib":0.94}
{"Gene":"OSGIN2","cell gain with vemurafenib":0.64,"lactate per cell with vemurafenib":1.29}
{"Gene":"OR1E2","cell gain with vemurafenib":0.79,"lactate per cell with vemurafenib":0.44}
{"Gene":"TSC22D2","cell gain with vemurafenib":0.97,"lactate per cell with vemurafenib":0.42}
{"Gene":"FOXA2","cell gain with vemurafenib":0.44,"lactate per cell with vemurafenib":1.05}
{"Gene":"NIF3L1","cell gain with vemurafenib":0.27,"lactate per cell with vemurafenib":1.33}
{"Gene":"PID1","cell gain with vemurafenib":0.73,"lactate per cell with vemurafenib":0.87}
{"Gene":"SMARCE1","cell gain with vemurafenib":0.59,"lactate per cell with vemurafenib":0.78}
{"Gene":"ZNF599","cell gain with vemurafenib":0.15,"lactate per cell with vemurafenib":1.09}
{"Gene":"INPP4A","cell gain with vemurafenib":0.84,"lactate per cell with vemurafenib":0.46}
{"Gene":"ZNF44","cell gain with vemurafenib":1.01,"lactate per cell with vemurafenib":0.54}
{"Gene":"C5AR2","cell gain with vemurafenib":0.37,"lactate per cell with vemurafenib":1.27}
{"Gene":"PSG7","cell gain with vemurafenib":0.71,"lactate per cell with vemurafenib":0.8}
{"Gene":"MRPS7","cell gain with vemurafenib":0.8,"lactate per cell with vemurafenib":1.11}
{"Gene":"C22orf23","cell gain with vemurafenib":0.02,"lactate per cell with vemurafenib":0.71}
